The assay deals with Saccharomyces cerevisiae BY4741 SeMeCo community. The assay can be described thus: imaged cell count per well (cells); higher = more cells. Particulars: 10 µM; 24 h; SM minimal medium. The procedure:
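Same SeMeCo high-content imaging drug screen: Selleck FDA-approved drugs at 10 µM, 24 h in SM medium, 384-well plates, 3 replicates.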

SMILES strings stand for the structures. Where a name gives a salt, the structure may show the parent alone. ± gives the standard deviation of the averaged measurements. Some of the results follow. Values are raw readings; no control value is given beside them.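 The yeast community starts from one strain carrying four plasmids, each with an amino-acid or uracil synthesis gene and a fluorescent protein. Random plasmid loss creates mixed prototroph and auxotroph subpopulations. Cells were fixed and counted by automated confocal fluorescence imaging, and DMSO-treated wells served as the vehicle reference.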

Turning to `OB1OCc2cc(F)ccc21` [Tavaborole (AN-2690)], the “imaged cell count per well” value is 603 ± 180.
In the case of `CCOc1ccc2nc3cc(N)ccc3c(N)c2c1` [Ethacridine lactate monohydrate] it was 24000 ± 3300.
For `CN(C)[C@@H]1C(O)=C(C(N)=O)C(=O)[C@@]2(O)C(O)=C3C(=O)c4c(O)cccc4[C@@](C)(O)[C@H]3[C@H](O)[C@@H]12` [Oxytetracycline (Terramycin)] the value was 15000 ± 800; for `C[N+]1(C)[C@@H]2CC[C@H]1C[C@@H](OC(=O)C(O)c1ccccc1)C2` (stereo partly drawn) [Homatropine Methylbromide], 23100 ± 9800; for `CC1(C)S[C@@H]2[C@H](NC(=O)Cc3ccccc3)C(=O)N2[C@H]1C(=O)O` [Benzylpenicillin potassium], 24900 ± 1500.
In the case of `CC[C@H](C)C(=O)O[C@H]1CCC=C2C=C[C@H](C)[C@H](CC[C@@H]3C[C@@H](O)CC(=O)O3)[C@H]21` [Mevastatin] it was 25600 ± 2900.
Consider `COc1cc2c(cc1OC)-c1cc3ccc(OC)c(OC)c3c[n+]1CC2` [Palmatine], for which the “imaged cell count per well” value was 24700 ± 2000.
With `C[C@@H](c1ncncc1F)[C@](O)(Cn1cncn1)c1ccc(F)cc1F` [Voriconazole], the “imaged cell count per well” value was 2370 ± 1500.
In the case of `C[N+]1(C)CCC(=C(c2ccccc2)c2ccccc2)CC1` [Diphemanil Methylsulfate] it was 20800 ± 8100.
Consider `CO[C@H]1C[C@@H]2CC[C@@H](C)[C@@](O)(O2)C(=O)C(=O)N2CCCC[C@H]2C(=O)O[C@H]([C@H](C)C[C@@H]2CC[C@@H](OP(C)(C)=O)[C@H](OC)C2)CC(=O)[C@H](C)/C=C(\C)[C@@H](O)[C@@H](OC)C(=O)[C@H](C)C[C@H](C)/C=C/C=C/C=C/1C` [Ridaforolimus (Deforolimus, MK-8669)], for which the “imaged cell count per well” value is 8270 ± 500.
For the compound `COc1cc(/C=C/C(=O)N2CCN(CC(=O)N3CCCC3)CC2)cc(OC)c1OC` [Cinepazide maleate], the “imaged cell count per well” value was determined as 18600 ± 2100.
For `COC(=O)C1=C(C#N)NC(C)=C(C(=O)OC(C)C)C1c1cccc([N+](=O)[O-])c1` (stereo not drawn) [Nilvadipine] the value was 14800 ± 2600.
In the case of `CC1(C)S[C@@H]2[C@H](NC(=O)[C@H](N)c3ccccc3)C(=O)N2[C@H]1C(=O)OCOC(=O)[C@@H]1N2C(=O)C[C@H]2S(=O)(=O)C1(C)C` [Sultamicillin] it was 23500 ± 3400; in that of `C[C@@H]1CN(c2c(F)c(N)c3c(=O)c(C(=O)O)cn(C4CC4)c3c2F)C[C@H](C)N1` [Sparfloxacin], 27400 ± 2600; in that of `CCn1cc(C(=O)O)c(=O)c2cc(F)c(N3CCN(C)CC3)cc21` [Pefloxacin Mesylate], 24100 ± 5600.
In the case of `COc1cc2c(cc1OC)[C@@H]1Cc3ccc(OC)c(OC)c3CN1CC2` [Rotundine], the “imaged cell count per well” value came to 19600 ± 3000.
In the case of `Cc1nc(Nc2ccc(F)cc2)nc(N2CCc3ccccc3C2C)c1C` (stereo not drawn) [Revaprazan Hydrochloride] it was 30300 ± 2000; in that of `CCOc1cc(N)c([N+](=O)[O-])cc1C(=O)NC1CCN(CC2CC=CCC2)CC1` (stereo not drawn) [Cinitapride Hydrogen Tartrate], 23500 ± 5400; in that of `CCOc1ccc2ccccc2c1C(=O)N[C@@H]1C(=O)N2[C@@H]1SC(C)(C)[C@@H]2C(=O)O` [Nafcillin Sodium], 29300 ± 7300.
With `O=C1CN(/N=C/c2ccc(-c3ccc([N+](=O)[O-])cc3)o2)C(=O)N1` [Dantrolene sodium], the “imaged cell count per well” value was found to be 23700 ± 1900.
With `C[C@@H](CN1CC(=O)NC(=O)C1)N1CC(=O)NC(=O)C1` [Dexrazoxane HCl (ICRF-187, ADR-529)], the “imaged cell count per well” value came out at 26300 ± 6400.
For `CC(C)(C)C(=O)OCOC(=O)[C@@H]1N2C(=O)[C@@H](/N=C/N3CCCCCC3)[C@H]2SC1(C)C` [Pivmecillinam hydrochloride], the “imaged cell count per well” value came out at 21900 ± 6400.
For `C#C[C@]1(OC(C)=O)CC[C@H]2[C@@H]3CCC4=C[C@@H](OC(C)=O)CC[C@@H]4[C@H]3CC[C@@]21C` [Ethynodiol diacetate] the value was 26800 ± 9200; for `O=C(NCCO[N+](=O)[O-])c1cccnc1` [Nicorandil], 26300 ± 3700; for `Clc1ccc(COC(Cn2ccnc2)c2ccc(Cl)cc2Cl)c(Cl)c1` (stereo not drawn) [Miconazole], 3350 ± 770.
Take `OCCN1CCN(CC/C=C2/c3ccccc3Sc3ccc(C(F)(F)F)cc32)CC1` [Flupenthixol dihydrochloride]: the “imaged cell count per well” value worked out at 26400 ± 1300.
For `CCCOc1ccc2[nH]c(NC(=O)OC)nc2c1` [Oxibendazole] the value was 25900 ± 2600; for `N[C@@H](CCC(=O)O)C(=O)O` [(S)-Glutamic acid], 20400 ± 7500.
In the case of `Cc1onc(-c2ccccc2)c1C(=O)N[C@@H]1C(=O)N2[C@@H]1SC(C)(C)[C@@H]2C(=O)O` [Oxacillin sodium monohydrate] it was 24600 ± 3300.
Consider `Cc1ccccc1C(OCCN(C)C)c1ccccc1` (stereo not drawn) [Orphenadrine Citrate], for which the “imaged cell count per well” value was 25900 ± 2800.
In the case of `CC(=O)Oc1ccccc1C(=O)O` [Aspirin] it was 20500 ± 4100.
For `CC(=O)OCC1=C(C(=O)O)N2C(=O)[C@@H](NC(=O)CSc3ccncc3)[C@H]2SC1` [Cephapirin Benzathine] the value was 19600 ± 10000.
For `O=C(O)CCNC(=O)c1ccccc1` [Betamipron] the value was 20500 ± 8300.
Take `CCCOc1ccc2c(c1)CC[C@@H]1[C@@H]2CC[C@]2(C)[C@@H](OC)CC[C@@H]12` [Promestriene]: the “imaged cell count per well” value is 22900 ± 4700.
Regarding `Cc1cc(C)nc(NS(=O)(=O)c2ccc(N)cc2)n1` [Sulfamethazine], the “imaged cell count per well” value stood at 23600 ± 4500.
In the case of `NS(=O)(=O)c1cc(C(=O)O)c(NCc2ccco2)cc1Cl` [Furosemide], the “imaged cell count per well” value is 25000 ± 1500.
In the case of `Cc1nccn1CC1CCc2c(c3ccccc3n2C)C1=O` (stereo not drawn) [Ondansetron HCl] it was 25700 ± 1500; in that of `OC(CCCN1CCCCC1)(c1ccccc1)c1ccccc1` [Diphenidol HCl], 23200 ± 12000.

The values above are taken from the supplement of paper PMC8975748.
